Laboratory results from PMC11845518.

Protein sequences, listed by entry. Tags and fused reporters are not part of them. Lines headed by an entry give the natural chain unless they say otherwise; changes in a name come on top.
UniProt Q9H792: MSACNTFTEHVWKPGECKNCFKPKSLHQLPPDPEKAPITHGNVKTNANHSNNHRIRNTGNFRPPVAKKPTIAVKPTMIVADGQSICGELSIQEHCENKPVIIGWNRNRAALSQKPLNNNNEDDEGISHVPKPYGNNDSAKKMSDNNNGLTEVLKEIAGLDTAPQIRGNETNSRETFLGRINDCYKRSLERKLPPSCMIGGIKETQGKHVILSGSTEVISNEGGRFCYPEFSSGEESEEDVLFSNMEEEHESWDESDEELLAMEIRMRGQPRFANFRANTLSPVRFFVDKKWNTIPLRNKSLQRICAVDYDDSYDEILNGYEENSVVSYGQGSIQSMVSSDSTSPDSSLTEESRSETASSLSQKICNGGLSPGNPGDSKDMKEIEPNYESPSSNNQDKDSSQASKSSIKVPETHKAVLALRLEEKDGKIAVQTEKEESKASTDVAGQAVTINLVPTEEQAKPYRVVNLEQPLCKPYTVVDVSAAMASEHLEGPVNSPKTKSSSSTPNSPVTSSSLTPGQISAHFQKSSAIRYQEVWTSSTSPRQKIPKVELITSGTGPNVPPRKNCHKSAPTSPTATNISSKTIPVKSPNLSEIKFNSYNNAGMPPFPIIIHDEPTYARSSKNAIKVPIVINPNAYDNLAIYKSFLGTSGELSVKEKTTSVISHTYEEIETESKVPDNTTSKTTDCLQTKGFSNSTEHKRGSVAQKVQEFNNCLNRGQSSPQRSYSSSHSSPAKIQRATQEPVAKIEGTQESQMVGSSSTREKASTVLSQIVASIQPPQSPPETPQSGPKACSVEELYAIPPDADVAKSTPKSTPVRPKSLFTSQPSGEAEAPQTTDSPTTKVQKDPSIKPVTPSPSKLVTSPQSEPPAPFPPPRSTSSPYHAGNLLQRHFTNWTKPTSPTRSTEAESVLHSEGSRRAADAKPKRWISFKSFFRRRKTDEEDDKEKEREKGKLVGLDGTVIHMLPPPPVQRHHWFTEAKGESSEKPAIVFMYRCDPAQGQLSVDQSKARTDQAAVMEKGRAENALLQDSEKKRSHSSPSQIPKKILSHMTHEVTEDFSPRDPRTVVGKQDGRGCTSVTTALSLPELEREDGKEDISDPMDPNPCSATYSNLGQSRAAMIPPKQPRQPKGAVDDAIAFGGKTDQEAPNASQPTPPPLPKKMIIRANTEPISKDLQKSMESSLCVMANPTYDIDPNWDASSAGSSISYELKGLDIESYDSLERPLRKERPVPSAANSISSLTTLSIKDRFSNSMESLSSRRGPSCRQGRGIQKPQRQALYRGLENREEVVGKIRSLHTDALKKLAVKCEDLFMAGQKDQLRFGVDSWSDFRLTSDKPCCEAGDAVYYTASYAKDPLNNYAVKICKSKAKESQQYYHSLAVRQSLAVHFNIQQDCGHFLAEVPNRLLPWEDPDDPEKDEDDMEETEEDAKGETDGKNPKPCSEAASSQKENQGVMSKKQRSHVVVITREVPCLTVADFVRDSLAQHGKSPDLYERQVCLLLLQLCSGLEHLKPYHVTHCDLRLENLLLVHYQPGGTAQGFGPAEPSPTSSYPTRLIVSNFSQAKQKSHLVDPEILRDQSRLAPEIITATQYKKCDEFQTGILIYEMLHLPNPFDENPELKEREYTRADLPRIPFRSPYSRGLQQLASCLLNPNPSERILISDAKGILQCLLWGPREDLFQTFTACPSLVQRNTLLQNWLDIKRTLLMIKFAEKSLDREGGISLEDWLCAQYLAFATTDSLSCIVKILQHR
UniProt Q13557: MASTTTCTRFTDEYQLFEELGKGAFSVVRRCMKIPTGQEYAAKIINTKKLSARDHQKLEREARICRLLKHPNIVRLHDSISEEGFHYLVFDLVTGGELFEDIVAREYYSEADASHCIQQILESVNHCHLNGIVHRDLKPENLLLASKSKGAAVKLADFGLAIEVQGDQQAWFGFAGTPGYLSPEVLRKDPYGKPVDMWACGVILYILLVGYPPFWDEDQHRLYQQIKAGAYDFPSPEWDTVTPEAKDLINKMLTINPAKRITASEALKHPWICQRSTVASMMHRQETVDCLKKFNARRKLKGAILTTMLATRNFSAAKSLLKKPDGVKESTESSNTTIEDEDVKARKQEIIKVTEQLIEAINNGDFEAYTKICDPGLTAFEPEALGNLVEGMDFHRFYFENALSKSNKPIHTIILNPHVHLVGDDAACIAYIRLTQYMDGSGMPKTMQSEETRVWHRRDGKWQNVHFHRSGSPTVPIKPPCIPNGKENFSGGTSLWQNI

Biological target: Flag-tagged PEAK1 ΔN1 (human) (UniProt Q9H792)
Assay: co-IP; Flag-tagged PEAK1 and deletion mutants expressed in HEK293T; anti-FLAG M2 agarose IP from lysate (normal lysis buffer), 4 °C 2–4 h; Western blot for CAMK2D or CAMK2G

binding: binds
Substance: calcium/calmodulin-dependent protein kinase 2 (CAMK2)D, endogenous in HEK293T (from UniProt Q13557 1-499) (enzyme)

These are yes or no findings as the source states them, for the method shown. Binding seen in cells or lysates may run through a third protein. Binding can be weak; no strength is given.
